Measurements reported in PubChem BioAssay AID504804 (Drosophila RNAi Screening Center, 2011)

- Assay: 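Knock-downs shielding fly cells from apoptosis caused by DNA damage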 (primary screen)
- Cells: Drosophila Kc cells
- Reagents: long dsRNA against Drosophila genes, 0.5 µg dsRNA per well
- Time to read-out: 96 h (48 h knock-down, then 48 h drug)
- Conditions: doxorubicin 5 µg/ml for 48 h, added 48 h after dsRNA
- Measurement: 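Viability measured as cellular ATP by luminescence after 48 h knock-down then 48 h doxorubicin at 5 µg/ml; unnormalised plate counts for each replicate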
- Scale: raw ATP luminescence: higher = more viable cells, protection from doxorubicin
- Hit rule: 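Active when both duplicate wells lie at least 2 SD above the plate mean and protection is confirmed by rescreening and independent dsRNAs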
In all, the deposit lists about 19,000 reagents; this is an unselected part of those that have a named target and a result. Over the whole deposit, 47 (0.25%) got an active call. 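Signals are raw, not normalised; exact z-scores behind calls not deposited; actives needed confirmation, so some wells reaching 2 SD are inactive.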 Reagents against one gene are numbered here. A plus sign joins genes that one reagent is predicted to hit.

gene knocked down	dsRNA no.	raw ATP luminescence, replicate 1	raw ATP luminescence, replicate 2	outcome
Usp47 (Ubiquitin specific protease 47)	1	35510	45127	inactive
psidin (phagocyte signaling impaired)	1	38150	42030	inactive
CG4161	1	78387	76607	inactive
Mal-B2 (Maltase B2)	1	1.84e5	1.92e5	inactive
Cpr31A (Cuticular protein 31A)	1	29583	55130	inactive
betaTub60D (beta-Tubulin at 60D)	1	52310	52593	inactive
Apt1 (Acyl-protein thioesterase 1)	1	63823	47663	inactive
Mitofilin	1	33860	54997	inactive
CG34425	1	60873	57670	inactive
Mco3 (Multicopper oxidase 3)	1	63300	56150	inactive
Bap55 (Brahma associated protein 55kD)	1	62640	67430	inactive
Dgat2 (Diacylglycerol O-acyltransferase 2)	1	46710	50900	inactive
CG15029 (retired record)	1	2.92e5	3.25e5	inactive
CG14668	1	48260	61093	inactive
CG17739	1	64687	53930	inactive
Not10 (CCR4-NOT transcription complex subunit 10)	1	36477	22323	inactive
Src42A (Src oncogene at 42A)	1	46377	46250	inactive
CG4041	1	48670	49500	inactive
CG14182	1	64650	67167	inactive
scrib (scribble)	1	1.73e5	1.73e5	inactive
scrib (scribble)	2	43880	56300	inactive
Ssb-c31a (Single stranded-binding protein c31A)	1	36927	77620	inactive
CG9626	1	55997	29587	inactive
CG34323	1	1.62e5	1.60e5	inactive
CG15022	1	71267	77987	inactive
Sirup (Starvation-upregulated protein)	1	57503	77553	inactive
rtet (tetracycline resistance)	1	38457	40617	inactive
CG1894	1	57420	51040	inactive
CG14692	1	55210	53780	inactive
Wee1 (Wee1 kinase)	1	32440	36700	inactive
PIG-G (Phosphatidylinositol glycan anchor biosynthesis class G)	1	91680	71680	inactive
Hsp26 (Heat shock protein 26)	1	37470	30993	inactive
ACXC (Adenylyl cyclase X C)	1	68690	81673	inactive
CG32447	1	27340	22683	inactive
CG32447	2	66023	70997	inactive
CG14684	1	63007	57463	inactive
CG2641	1	57083	49187	inactive

Reprinted from the entries so far, 7 entries:
gene knocked down	dsRNA no.	raw ATP luminescence, replicate 1	raw ATP luminescence, replicate 2	outcome
rtet (tetracycline resistance)	1	38457	40617	inactive
CG1894	1	57420	51040	inactive
CG14692	1	55210	53780	inactive
Wee1 (Wee1 kinase)	1	32440	36700	inactive
PIG-G (Phosphatidylinositol glycan anchor biosynthesis class G)	1	91680	71680	inactive
Hsp26 (Heat shock protein 26)	1	37470	30993	inactive
ACXC (Adenylyl cyclase X C)	1	68690	81673	inactive

The results go on:
gene knocked down	dsRNA no.	raw ATP luminescence, replicate 1	raw ATP luminescence, replicate 2	outcome
Sas-4 (Spindle assembly abnormal 4)	1	76597	69037	inactive
uex (unextended)	1	2.12e5	2.37e5	inactive
uex (unextended)	2	2.48e5	2.40e5	inactive
CG6870	1	58947	65293	inactive
Mct1 (Monocarboxylate transporter 1)	1	47700	65360	inactive
Prosbeta4 (Proteasome beta4 subunit)	1	59090	57170	inactive
Polr2J (RNA polymerase II subunit J)	1	80100	75147	inactive
CG1688	1	55760	49597	inactive
Wbp2 (WW domain binding protein 2)	1	45343	39073	inactive
Eglp3 (Entomoglyceroporin 3)	1	68830	49383	inactive
fusl (fuseless)	1	1.09e5	65377	inactive
RpL7-like + CG34164	1	68140	68097	inactive
RpL7-like + CG34164	2	69847	70073	inactive
beat-Ic (beaten path Ic)	1	3.19e5	2.71e5	inactive
beat-Ic (beaten path Ic)	2	51073	63333	inactive
Gmer (GDP-4-keto-6-deoxy-D-mannose 3,5-epimerase/4-reductase)	1	77697	53363	inactive
CG15306	1	3.03e5	2.90e5	inactive
CG15306	2	3.63e5	3.55e5	inactive
fry (furry)	1	1.83e5	1.87e5	inactive
fry (furry)	2	85783	1.47e5	inactive
fry (furry)	3	76273	1.33e5	inactive
fry (furry)	4	27017	26943	inactive
